The other results are listed elsewhere or left out. Construct or isoform of the protein are uncertain.
molecular target: T1, ETS1 (UniProt P14921); experiment: DAPPL (digital affinity profiling via proximity ligation, sequencing); details: 10 mM Tris-HCl pH 7.5, 50 mM NaCl, 1 mM DTT, 4% glycerol, room temperature, 30 min; GST-TFs on glutathione beads, 16-mer random dsDNA library, 0.1% …; high values mean tight binding; double strand, one strand shown; scale: fold enrichment (6-mer frequency, TF over GST control)
T1 sequence: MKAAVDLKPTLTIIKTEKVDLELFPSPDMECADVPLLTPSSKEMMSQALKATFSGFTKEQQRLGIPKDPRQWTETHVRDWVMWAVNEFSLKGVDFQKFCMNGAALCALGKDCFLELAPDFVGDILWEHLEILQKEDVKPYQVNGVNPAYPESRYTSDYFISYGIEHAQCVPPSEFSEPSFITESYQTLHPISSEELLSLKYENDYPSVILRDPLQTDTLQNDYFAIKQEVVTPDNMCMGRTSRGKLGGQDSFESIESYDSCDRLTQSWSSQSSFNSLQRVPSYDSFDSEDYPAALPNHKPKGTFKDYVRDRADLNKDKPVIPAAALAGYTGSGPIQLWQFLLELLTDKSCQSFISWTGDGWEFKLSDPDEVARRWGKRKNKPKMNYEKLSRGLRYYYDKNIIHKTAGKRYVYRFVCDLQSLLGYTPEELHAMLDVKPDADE

Row | Sequence | binding signal
1 | TATACC | 1.2
2 | ACGAAA | 1.17
3 | TTGTCA | 1.19
4 | GTAACC | 1.06
5 | CATACA | 1.08
6 | TCGCAT | 0.952
7 | CTCCAG | 1.25
8 | CTGACG | 1.1
9 | TAGTAG | 0.991
10 | ACCCAA | 1.15
11 | TCTTTT | 1.42
12 | AATTAA | 1.29
13 | TTGCAA | 1.24
14 | TTGACT | 1.23
15 | TGGAAT | 1.25
16 | CTTTGT | 1.13
17 | TTTTTG | 1.42
18 | TACGCA | 1.18
19 | TGGTGG | 1.06
20 | GCTAGT | 1.06

A portion from further up, for reference:
Row | Sequence | binding signal
11 | TCTTTT | 1.42
12 | AATTAA | 1.29
13 | TTGCAA | 1.24

Remaining list, next part:

Row | Sequence | binding signal
21 | GGCTAA | 0.953
22 | AATTCT | 1.31
23 | CACATC | 1.46
24 | CCGGAC | 1.33
25 | TTCGCA | 1.26
26 | ACATAA | 1.15
27 | AACATT | 1.26
28 | AAGCCT | 1.26
29 | CCTTTA | 1.37
30 | AGGAAG | 1.27
31 | TACAAC | 1.08
32 | TTCTGT | 1.22
33 | TTCCAA | 1.32
34 | GGTAAT | 1.17
35 | TTACGT | 1.15
36 | ATCTAT | 1.24
37 | GAACTT | 1.63
38 | TAAAAA | 1.46
39 | ATACTT | 1.65
40 | TTCAAT | 1.39
